Reference: publication PMC12097129
Results are given in words; binding and its absence hold for the method and conditions named. Binding seen in cells or lysates may run through a third protein. Some results given as binding are weak or reduced against the parent protein; the word gives no strength.

Sequences of proteins named here, by UniProt entry; tags and fusion partners are left off.
UniProt Q9ULU4: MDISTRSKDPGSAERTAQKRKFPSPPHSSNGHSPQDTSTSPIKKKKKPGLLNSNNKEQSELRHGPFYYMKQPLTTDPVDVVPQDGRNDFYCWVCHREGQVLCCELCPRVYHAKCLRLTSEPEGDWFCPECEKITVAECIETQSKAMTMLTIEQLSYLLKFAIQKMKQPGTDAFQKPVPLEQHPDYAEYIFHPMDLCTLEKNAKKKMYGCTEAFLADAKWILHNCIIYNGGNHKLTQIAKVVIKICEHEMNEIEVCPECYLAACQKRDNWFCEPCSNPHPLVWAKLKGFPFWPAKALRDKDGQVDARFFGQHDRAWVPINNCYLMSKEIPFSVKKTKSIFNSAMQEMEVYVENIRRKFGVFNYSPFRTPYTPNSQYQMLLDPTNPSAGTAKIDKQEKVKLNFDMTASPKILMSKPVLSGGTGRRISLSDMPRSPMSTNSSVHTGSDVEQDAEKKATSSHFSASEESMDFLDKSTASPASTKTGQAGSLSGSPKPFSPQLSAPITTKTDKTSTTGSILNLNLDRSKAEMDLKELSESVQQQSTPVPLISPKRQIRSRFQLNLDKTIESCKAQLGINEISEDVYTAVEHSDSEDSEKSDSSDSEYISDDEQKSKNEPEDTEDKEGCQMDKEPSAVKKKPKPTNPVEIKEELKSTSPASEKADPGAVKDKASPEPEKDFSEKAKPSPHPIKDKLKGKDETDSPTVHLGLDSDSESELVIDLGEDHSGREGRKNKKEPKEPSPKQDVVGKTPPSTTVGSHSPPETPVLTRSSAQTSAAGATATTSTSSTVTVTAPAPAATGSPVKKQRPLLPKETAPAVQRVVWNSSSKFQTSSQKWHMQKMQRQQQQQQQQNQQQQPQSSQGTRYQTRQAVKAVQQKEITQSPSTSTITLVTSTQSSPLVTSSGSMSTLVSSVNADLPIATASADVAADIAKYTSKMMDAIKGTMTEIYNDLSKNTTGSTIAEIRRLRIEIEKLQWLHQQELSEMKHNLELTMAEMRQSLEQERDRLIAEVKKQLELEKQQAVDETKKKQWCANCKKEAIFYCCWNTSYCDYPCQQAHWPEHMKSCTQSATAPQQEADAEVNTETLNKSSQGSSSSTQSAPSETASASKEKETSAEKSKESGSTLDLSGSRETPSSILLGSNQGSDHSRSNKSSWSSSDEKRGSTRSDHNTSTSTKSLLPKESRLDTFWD
UniProt Q61188: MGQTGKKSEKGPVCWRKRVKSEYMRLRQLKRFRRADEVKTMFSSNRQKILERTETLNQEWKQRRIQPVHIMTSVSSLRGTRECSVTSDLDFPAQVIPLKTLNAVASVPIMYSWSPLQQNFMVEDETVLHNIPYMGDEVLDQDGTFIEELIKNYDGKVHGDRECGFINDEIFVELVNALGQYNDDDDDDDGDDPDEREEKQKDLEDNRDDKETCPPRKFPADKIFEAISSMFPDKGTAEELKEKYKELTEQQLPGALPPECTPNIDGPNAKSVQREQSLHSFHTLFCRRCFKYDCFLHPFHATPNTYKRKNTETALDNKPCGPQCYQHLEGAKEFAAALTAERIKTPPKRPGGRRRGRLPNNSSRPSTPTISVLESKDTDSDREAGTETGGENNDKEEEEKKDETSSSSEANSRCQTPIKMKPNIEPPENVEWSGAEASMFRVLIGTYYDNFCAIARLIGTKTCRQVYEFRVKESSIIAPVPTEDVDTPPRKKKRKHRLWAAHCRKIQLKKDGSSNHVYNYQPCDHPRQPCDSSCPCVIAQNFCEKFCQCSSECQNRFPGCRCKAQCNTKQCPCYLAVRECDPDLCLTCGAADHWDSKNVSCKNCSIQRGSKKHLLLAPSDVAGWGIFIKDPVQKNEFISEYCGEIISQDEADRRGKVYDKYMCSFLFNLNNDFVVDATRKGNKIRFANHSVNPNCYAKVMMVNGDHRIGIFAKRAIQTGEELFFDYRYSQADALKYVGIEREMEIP
UniProt Q80U70: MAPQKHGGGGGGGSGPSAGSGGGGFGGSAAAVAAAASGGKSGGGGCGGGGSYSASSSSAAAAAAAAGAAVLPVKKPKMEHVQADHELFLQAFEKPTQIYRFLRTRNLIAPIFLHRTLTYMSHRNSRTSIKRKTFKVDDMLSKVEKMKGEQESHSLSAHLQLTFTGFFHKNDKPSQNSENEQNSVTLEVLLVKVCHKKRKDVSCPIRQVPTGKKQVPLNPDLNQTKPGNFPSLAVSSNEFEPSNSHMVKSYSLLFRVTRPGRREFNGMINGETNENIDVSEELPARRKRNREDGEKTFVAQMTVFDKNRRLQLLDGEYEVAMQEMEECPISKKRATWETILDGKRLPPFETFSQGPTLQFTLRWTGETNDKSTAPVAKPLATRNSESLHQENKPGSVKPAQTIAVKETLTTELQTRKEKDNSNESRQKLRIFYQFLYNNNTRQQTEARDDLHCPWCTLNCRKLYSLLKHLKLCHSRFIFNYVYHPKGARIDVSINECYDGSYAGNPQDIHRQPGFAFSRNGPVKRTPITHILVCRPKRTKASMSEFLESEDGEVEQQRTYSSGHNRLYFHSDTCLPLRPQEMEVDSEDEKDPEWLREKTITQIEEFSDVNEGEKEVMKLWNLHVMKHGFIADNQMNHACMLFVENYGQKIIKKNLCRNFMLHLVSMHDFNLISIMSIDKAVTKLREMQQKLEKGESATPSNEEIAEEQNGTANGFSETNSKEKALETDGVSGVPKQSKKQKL

Target: HA-tagged full-length human RACK7 protein (human) (UniProt Q9ULU4)
Test: pull-down; purified HA-RACK7 incubated with dialysed nuclear extract of WT mouse forebrain for 6 h at 4 °C in 20 mM Tris-HCl pH 7.3, 150 mM KCl, 0.1% NP-40; captured on anti-HA beads; immunoblot; only the target purified

## Enhancer of Zeste Homolog 2 (EZH2), endogenous mouse (from UniProt Q61188 1-746)
  binding: binds

## Suppressor of Zeste 12 homolog (SUZ12), endogenous mouse (from UniProt Q80U70 1-741)
  binding: binds
